In all, about 320,000 compounds went through this assay and about 2,100 (0.66%) were called active. Inconclusive means that the source gave no clear call. Such entries were picked first, then a sample of the others. The call rests on the fitted dose curve; in most records, active means well fitted inhibition curve with a large enough effect in the signal ratio, with a control signal flat (not every such curve was filed as active); inconclusive means small, poorly fitted or top-dose-only effect, or effect the other way, or a change in a side signal; inactive means flat fitted curve, though single readings scatter; the % refers to the signal ratio. Potencies beside an inconclusive call are fits to weak or partial responses and may not hold up.
assay: qHTS Assay for Lipid Storage Modulators in Drosophila S3 Cells; details: BODIPY lipid droplet fluorescence, 18-24 h, cells fed with added oleic acid; lipid storage change, negative = inhibition: at 46.1 µM (top of the series) unless noted
Method in brief: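 Laser-scanning cytometry quantifies lipid droplet accumulation (500–530 nm total intensity; droplet/cell object ratio) in oleic acid-fed (400 uM added) Drosophila S3 cells treated with a concentration series. 20 uM Triacsin C defined 100% inhibition.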
On the % scale 0 is the no-effect control and ±100 the full control effect; potency means the concentration at half of the fitted maximal effect.

Structure (SMILES) | Potency | lipid storage change, negative = inhibition
N#Cc1ccc(-c2ccc(OCC(=O)Nc3cccnc3)cc2)cc1 | active: 13 µM | –
Cc1oc2c(CN3CCCC3)c(O)ccc2c(=O)c1-c1ccccc1 | – | inconclusive: -73.2%
CCCOc1ccc(C(=O)NC2CCSc3ccccc32)cc1 (configuration not stated) | inconclusive: 29.1 µM [falling, single point] | –
CCCCC(NC(=O)c1ccc(Cl)cc1)C(=O)O (configuration not stated) | inconclusive: 23.1 µM [falling, single point] | –
CCOC(=O)N1CCN(C(=O)c2ccc(OC(C)=O)cc2)CC1 | – | inconclusive: -21.4%
CCC(CC)C(=O)Nc1nnc(SCC(=O)NC(C)(C)C)s1 | – | inconclusive: -12.3%
Cn1cc(S(=O)(=O)N2CCN(c3cccc(Cl)c3)CC2)c(=O)n(C)c1=O | inconclusive: 6.51 µM [activator, partial curve, poor fit] | –
CN(c1ccccc1)S(=O)(=O)c1cccc(NC(=O)CSc2nnc(C3CC3)n2C)c1 | active: 23.1 µM | –
COc1ccc(Cn2c(C)nc3oc4cc(OC)ccc4c(=O)c3c2=O)cc1 | – | inconclusive: 53.1%
CN=C(Nc1cc(C)nn1-c1ccccc1)c1ccccc1F | inconclusive: 0.0046 µM [rising, full curve, poor fit] | –
COc1ccc(S(=O)(=O)N2CCC(C(=O)NC3CC3)CC2)cc1OC | – | inconclusive: 12.5%
COc1cccc(CC(=O)Nc2nc(-c3ccc(F)c(F)c3)cs2)c1 | – | inconclusive: 267%
O=C(N/N=C/c1cc([N+](=O)[O-])ccc1O)c1cccc(NC(=O)c2cccc(Cl)c2)c1 | inconclusive: 0.82 µM [falling, full curve] | –
CCC(=O)Nc1ccc(C(=O)NNC(=O)c2cccs2)cc1 | inconclusive: 32.6 µM [activator, single point] | –
O=C(CCc1ccccc1)NCc1ccccc1 | – | inconclusive: -18.4%
Cc1cc(NC(=O)CSc2nnc(-c3cccnc3)n2Cc2ccccc2)no1 | – | inconclusive: 11.9%
N#C/C(=C\c1coc2ccccc2c1=O)C(N)=S | – | inconclusive: 21.2%
Cn1c(SCC(=O)Nc2nnc(-c3ccccc3)o2)nnc1C1CC1 | – | inconclusive: 36.7%
Cc1onc(-c2c(Cl)cccc2Cl)c1C(=O)NC1CCCCC1 | inconclusive: 2.59 µM [activator, partial curve] | –
O=C1CCC(C(=O)Nc2ccccc2N2CCCC2)=NN1 | – | inconclusive: 9.02%
COc1ccccc1CNC(=O)COC(=O)c1ccccn1 | – | inconclusive
Cc1nn(-c2ccccc2)c(N2CCCC2)c1C=O | inconclusive: 29.1 µM [rising, single point] | –

Quoted from above for reference:
Structure (SMILES) | Potency | lipid storage change, negative = inhibition
COc1ccc(S(=O)(=O)N2CCC(C(=O)NC3CC3)CC2)cc1OC | – | inconclusive: 12.5%
COc1cccc(CC(=O)Nc2nc(-c3ccc(F)c(F)c3)cs2)c1 | – | inconclusive: 267%

From PubChem BioAssay AID2685 (National Center for Advancing Translational Sciences (NCATS), 2010)
